Laboratory results as given in article PMC5186766.
Results are given in words; binding and its absence hold for the method and conditions named. Binding seen in cells or lysates may run through a third protein. Some results given as binding are weak or reduced against the parent protein; the word gives no strength.

Amino acid sequences for entries named in this document (tags omitted).
UniProt O00571: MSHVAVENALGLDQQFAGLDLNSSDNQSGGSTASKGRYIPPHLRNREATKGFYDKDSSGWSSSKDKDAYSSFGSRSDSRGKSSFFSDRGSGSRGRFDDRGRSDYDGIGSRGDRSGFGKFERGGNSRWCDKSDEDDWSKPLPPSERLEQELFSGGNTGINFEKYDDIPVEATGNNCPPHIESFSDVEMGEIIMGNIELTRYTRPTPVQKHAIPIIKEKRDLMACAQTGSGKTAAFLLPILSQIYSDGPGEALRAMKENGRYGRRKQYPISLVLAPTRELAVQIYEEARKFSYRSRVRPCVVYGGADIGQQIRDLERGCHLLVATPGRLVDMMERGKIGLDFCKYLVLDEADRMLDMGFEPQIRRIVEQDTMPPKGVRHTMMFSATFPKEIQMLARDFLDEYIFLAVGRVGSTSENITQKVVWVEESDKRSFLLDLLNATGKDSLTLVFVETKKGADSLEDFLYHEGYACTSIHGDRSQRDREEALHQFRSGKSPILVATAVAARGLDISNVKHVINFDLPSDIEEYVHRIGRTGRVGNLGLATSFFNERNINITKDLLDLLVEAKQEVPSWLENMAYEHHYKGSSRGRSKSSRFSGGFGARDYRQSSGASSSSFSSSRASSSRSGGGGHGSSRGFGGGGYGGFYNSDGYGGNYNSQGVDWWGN

Biological target: GST.DDX3 fusion protein (UniProt O00571)
Assay: pull-down; purified GST or GST fusion protein (15 μg) on 20 μl glutathione sepharose beads plus 10 μl of in vitro translated [35S]-labeled protein, overnight at 4°C, washed with 0.1 M PBS; SDS-PAGE and autoradiography; only the target purified

B1: human adenovirus (HAdV)-5 pVIII (protein, UniProt P24936 1-227)
chain: MSKEIPTPYMWSYQPQMGLAAGAAQDYSTRINYMSAGPHMISRVNGIRAHRNRILLEQAAITTTPRNNLNPRSWPAALVYQESPAPTTVVLPRDAQAEVQMTNSGAQLAGGFRHRVRSPGQGITHLTIRGRGIQLNDESVSSSLGLRPDGTFQIGGAGRPSFTPRQAILTLQTSSSEPRSGGIGTLQFIEEFVPSVYFNPFSGPPGHYPDQFIPNFDAVKDSADGYD
modifications: [35S] methionine labeled
- binding: binds
